The supplement of paper PMC10849652
The other results are listed elsewhere or left out.

The chains behind the UniProt entries cited, without tags or fusion partners. Where a name states a change or a piece, a line headed by the entry shows the natural chain unless it says otherwise.
UniProt Q86UK7: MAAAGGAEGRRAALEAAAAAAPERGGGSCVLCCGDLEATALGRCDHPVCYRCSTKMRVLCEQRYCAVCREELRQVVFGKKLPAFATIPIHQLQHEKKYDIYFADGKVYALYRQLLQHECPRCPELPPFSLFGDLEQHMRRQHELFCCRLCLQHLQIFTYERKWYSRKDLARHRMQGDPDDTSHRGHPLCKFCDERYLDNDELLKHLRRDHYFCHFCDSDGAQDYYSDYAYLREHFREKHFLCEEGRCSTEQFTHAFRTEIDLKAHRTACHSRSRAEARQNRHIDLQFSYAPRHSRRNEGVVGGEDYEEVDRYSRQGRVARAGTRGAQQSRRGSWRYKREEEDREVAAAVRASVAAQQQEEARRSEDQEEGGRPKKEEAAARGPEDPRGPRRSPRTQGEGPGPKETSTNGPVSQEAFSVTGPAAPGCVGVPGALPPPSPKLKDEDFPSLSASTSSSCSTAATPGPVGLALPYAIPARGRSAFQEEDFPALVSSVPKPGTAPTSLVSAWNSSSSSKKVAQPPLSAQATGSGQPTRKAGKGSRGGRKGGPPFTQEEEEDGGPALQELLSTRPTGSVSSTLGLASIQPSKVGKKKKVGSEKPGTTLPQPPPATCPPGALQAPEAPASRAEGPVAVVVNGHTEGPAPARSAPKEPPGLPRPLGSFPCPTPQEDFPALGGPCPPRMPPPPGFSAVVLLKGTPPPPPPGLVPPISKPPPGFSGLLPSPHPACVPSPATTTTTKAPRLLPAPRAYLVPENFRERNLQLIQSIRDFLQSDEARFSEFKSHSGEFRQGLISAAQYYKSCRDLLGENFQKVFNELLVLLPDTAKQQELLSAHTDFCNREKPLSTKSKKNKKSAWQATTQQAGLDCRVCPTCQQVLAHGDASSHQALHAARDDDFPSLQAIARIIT
UniProt O15014: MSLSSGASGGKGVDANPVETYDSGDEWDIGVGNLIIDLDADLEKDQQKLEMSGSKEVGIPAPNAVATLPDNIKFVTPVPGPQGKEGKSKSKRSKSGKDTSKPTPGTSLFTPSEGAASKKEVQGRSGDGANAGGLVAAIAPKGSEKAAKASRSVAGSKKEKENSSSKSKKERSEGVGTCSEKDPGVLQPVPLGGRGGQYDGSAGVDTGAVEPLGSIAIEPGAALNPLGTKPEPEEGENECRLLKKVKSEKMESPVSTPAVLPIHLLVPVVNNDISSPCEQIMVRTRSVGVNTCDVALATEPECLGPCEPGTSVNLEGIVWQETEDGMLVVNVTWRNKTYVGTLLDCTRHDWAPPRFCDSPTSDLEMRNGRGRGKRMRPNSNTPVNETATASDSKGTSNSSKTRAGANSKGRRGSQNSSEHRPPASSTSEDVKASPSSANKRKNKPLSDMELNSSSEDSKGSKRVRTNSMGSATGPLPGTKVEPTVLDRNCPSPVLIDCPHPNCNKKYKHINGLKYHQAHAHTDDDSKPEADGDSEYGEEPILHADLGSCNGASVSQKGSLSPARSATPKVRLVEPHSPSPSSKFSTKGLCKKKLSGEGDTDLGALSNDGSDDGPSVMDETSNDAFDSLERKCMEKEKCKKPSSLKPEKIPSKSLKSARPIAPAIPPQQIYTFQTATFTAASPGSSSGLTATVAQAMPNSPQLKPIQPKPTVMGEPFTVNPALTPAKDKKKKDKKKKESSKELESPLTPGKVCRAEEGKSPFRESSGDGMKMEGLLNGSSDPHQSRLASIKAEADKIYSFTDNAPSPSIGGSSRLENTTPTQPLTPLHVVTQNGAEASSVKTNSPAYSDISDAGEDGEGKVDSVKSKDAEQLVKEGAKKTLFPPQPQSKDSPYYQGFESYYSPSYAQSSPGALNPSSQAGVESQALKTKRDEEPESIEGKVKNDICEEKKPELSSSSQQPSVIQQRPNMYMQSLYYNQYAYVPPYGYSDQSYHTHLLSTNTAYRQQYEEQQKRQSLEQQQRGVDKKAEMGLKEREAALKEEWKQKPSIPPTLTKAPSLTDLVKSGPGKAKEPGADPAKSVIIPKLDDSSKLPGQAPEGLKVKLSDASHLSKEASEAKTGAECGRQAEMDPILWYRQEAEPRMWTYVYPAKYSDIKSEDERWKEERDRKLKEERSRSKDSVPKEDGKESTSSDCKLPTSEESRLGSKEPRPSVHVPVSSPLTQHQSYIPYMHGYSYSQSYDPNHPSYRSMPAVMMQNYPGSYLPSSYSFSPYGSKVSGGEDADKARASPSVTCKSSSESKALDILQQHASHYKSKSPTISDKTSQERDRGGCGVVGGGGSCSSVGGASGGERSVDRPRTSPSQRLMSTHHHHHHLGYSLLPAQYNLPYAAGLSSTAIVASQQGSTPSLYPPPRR

molecular target: ZNF598 (UniProt Q86UK7); experiment: log2 fold change, soluble protein after heating vs DMSO (PISA); higher = thermal stabilisation; K562 cells, 10 uM, 30 min; active = over 0.2 and 3.5 SD of the protein, either way, in both replicates (recomputed)
Summary of the method: (§1)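 K562 cells at 2×10^6 cells/mL were exposed to 10 μM compound for 30 min, then aliquots were heated for 3 min across 48°C-58°C, pooled, and extracted in PBS containing 0.5% NP-40 at 4°C. The supernatant after 21,000xg for 90 min was taken as soluble protein and measured by TMTpro 16plex LC-MS/MS with channel sums equalised. Thermal stability is reported relative to control samples, with values from duplicates. Fold changes are given on a log2 scale.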

log2 fold change, inactive:
CCCc1cc(C)[nH]c(=O)c1CNC(=O)c1cc(-c2ccnc(N3CCN(C)CC3)c2)cc2c1cnn2C(C)C 0.027
Cc1cccc(-c2[nH]c(C(C)(C)C)nc2-c2ccc3nccnc3c2)n1 -0.021
COc1cc2ncnc(Nc3ccc(F)c(Cl)c3)c2cc1OCCCN1CCOCC1 [gefitinib] -0.044
Cc1cc(Nc2cc(CN3CCOCC3)c3nc(C)c(Cc4ccc(Cl)cc4F)n3n2)n[nH]1 [gandotinib] -0.104
NC1(c2ccc(-c3nc4ccn5c(=O)[nH]nc5c4cc3-c3ccccc3)cc2)CCC1 -0.05
O=C1NC(=O)/C(=C\c2ccc3nccnc3c2)S1 0
CCN(CCCOc1ccc2c(Nc3cc(CC(=O)Nc4cccc(F)c4)[nH]n3)ncnc2c1)CCOP(=O)(O)O [barasertib] 0.039
Cc1ncc(-c2ccnc(Nc3ccc(S(C)(=O)=O)cc3)n2)n1C(C)C -0.03
Cc1cccc(CC(=O)N2CCc3c2ccc(-c2cn(C)c4ncnc(N)c24)c3F)n1 0.091
COc1cccc2cc(-c3nc([C@H]4CC[C@H](C(=O)O)CC4)n4ncnc(N)c34)[nH]c12 -0.024
Cc1ccc(NC(=O)c2ccc(CN3CC[C@H](N(C)C)C3)c(C(F)(F)F)c2)cc1Nc1nccc(-c2cncnc2)n1 [bafetinib] 0.001
CCn1cc(-c2ccnc3[nH]c(-c4cccc(CN(C)C)c4)cc23)c(-c2ccc(NC(=O)N(C)C)cc2)n1 -0.033
CC(C)N(C[C@H]1O[C@@H](n2cnc3c(N)ncnc32)[C@H](O)[C@@H]1O)[C@H]1C[C@@H](CCc2nc3cc(C(C)(C)C)ccc3[nH]2)C1 [pinometostat] 0
CN1CCC(CNc2ccc3ncc(-c4cccc(OC(F)(F)F)c4)n3n2)CC1 -0.152
C[C@@H](N)c1ccc(C(=O)Nc2ccnc3[nH]ccc23)cc1 0.049
CC[C@H](C)n1cc(C)c2c(C(=O)NCc3c(C)cc(C)[nH]c3=O)cc(-c3ccc(N4CCNCC4)nc3)cc21 0.068
COc1ccc(Cn2ccc3ccc(C(=O)NO)cc32)cc1 0.076
CS(=O)(=O)N1CCN(Cc2cc3nc(-c4cccc5[nH]ncc45)nc(N4CCOCC4)c3s2)CC1 [pictilisib] -0.042
COc1cc(Nc2ncc3c(n2)-c2ccc(Cl)cc2C(c2c(F)cccc2OC)=NC3)ccc1C(=O)O [alisertib] -0.024
Cn1cc(-c2ccc3c(c2)CCN3C(=O)Cc2cccc(C(F)(F)F)c2)c2c(N)ncnc21 0.085
O=C(CCCCCCC(=O)Nc1ccccc1)NO [vorinostat] 0.098
C[C@@H](Oc1cc(-c2cnn(C3CCNCC3)c2)cnc1N)c1c(Cl)ccc(F)c1Cl [crizotinib] -0.133
Cc1ccc(-n2nc(C(C)(C)C)cc2NC(=O)Nc2ccc(OCCN3CCOCC3)c3ccccc23)cc1 [doramapimod] 0.035
Cc1cn(-c2cc(NC(=O)c3ccc(C)c(Nc4nccc(-c5cccnc5)n4)c3)cc(C(F)(F)F)c2)cn1 [nilotinib] -0.073
O=C(O)c1ccc2c(c1)nc(Nc1cccc(Cl)c1)c1ccncc12 [silmitasertib] 0.007
C=CC(=O)N1CCC[C@@H](n2nc(-c3ccc(Oc4ccccc4)cc3)c3c(N)ncnc32)C1 [ibrutinib] -0.019
O=C(Nc1nc2ccccc2n1CCN1CCOCC1)c1cccc([N+](=O)[O-])c1 [IRAK-1-4 Inhibitor I] -0.038
Cc1nc(Nc2n[nH]c3c2CN(C(=O)N[C@H](CN(C)C)c2ccccc2)C3(C)C)c2sccc2n1 -0.1
CO[C@H]1C[C@@H]2CC[C@@H](C)[C@@](O)(O2)C(=O)C(=O)N2CCCC[C@H]2C(=O)O[C@H]([C@H](C)C[C@@H]2CC[C@H](n3cnnn3)[C@H](OC)C2)CC(=O)[C@H](C)/C=C(\C)[C@@H](O)[C@@H](OC)C(=O)[C@H](C)C[C@H](C)/C=C/C=C/C=C/1C [zotarolimus] 0.016
FC(F)(F)c1ccc(/C=C/c2nc(COc3ccc(CCCCn4ccnn4)cc3)co2)cc1 [mubritinib] 0.044

molecular target: ZNF609 (UniProt O15014); experiment: as above
Summary of the method: as §1

log2 fold change, inactive:
CCCc1cc(C)[nH]c(=O)c1CNC(=O)c1cc(-c2ccnc(N3CCN(C)CC3)c2)cc2c1cnn2C(C)C -0.003
Cc1cccc(-c2[nH]c(C(C)(C)C)nc2-c2ccc3nccnc3c2)n1 0.014
COc1cc2ncnc(Nc3ccc(F)c(Cl)c3)c2cc1OCCCN1CCOCC1 [gefitinib] -0.069
Cc1cc(Nc2cc(CN3CCOCC3)c3nc(C)c(Cc4ccc(Cl)cc4F)n3n2)n[nH]1 [gandotinib] -0.073
NC1(c2ccc(-c3nc4ccn5c(=O)[nH]nc5c4cc3-c3ccccc3)cc2)CCC1 0.018
O=C1NC(=O)/C(=C\c2ccc3nccnc3c2)S1 -0.006
CCN(CCCOc1ccc2c(Nc3cc(CC(=O)Nc4cccc(F)c4)[nH]n3)ncnc2c1)CCOP(=O)(O)O [barasertib] 0.039
Cc1ncc(-c2ccnc(Nc3ccc(S(C)(=O)=O)cc3)n2)n1C(C)C -0.102
Cc1cccc(CC(=O)N2CCc3c2ccc(-c2cn(C)c4ncnc(N)c24)c3F)n1 -0.22
COc1cccc2cc(-c3nc([C@H]4CC[C@H](C(=O)O)CC4)n4ncnc(N)c34)[nH]c12 -0.028
Cc1ccc(NC(=O)c2ccc(CN3CC[C@H](N(C)C)C3)c(C(F)(F)F)c2)cc1Nc1nccc(-c2cncnc2)n1 [bafetinib] -0.233
CCn1cc(-c2ccnc3[nH]c(-c4cccc(CN(C)C)c4)cc23)c(-c2ccc(NC(=O)N(C)C)cc2)n1 0.097
CC(C)N(C[C@H]1O[C@@H](n2cnc3c(N)ncnc32)[C@H](O)[C@@H]1O)[C@H]1C[C@@H](CCc2nc3cc(C(C)(C)C)ccc3[nH]2)C1 [pinometostat] 0.03
CN1CCC(CNc2ccc3ncc(-c4cccc(OC(F)(F)F)c4)n3n2)CC1 -0.134
C[C@@H](N)c1ccc(C(=O)Nc2ccnc3[nH]ccc23)cc1 0.033
CC[C@H](C)n1cc(C)c2c(C(=O)NCc3c(C)cc(C)[nH]c3=O)cc(-c3ccc(N4CCNCC4)nc3)cc21 0.076
COc1ccc(Cn2ccc3ccc(C(=O)NO)cc32)cc1 -0.034
CS(=O)(=O)N1CCN(Cc2cc3nc(-c4cccc5[nH]ncc45)nc(N4CCOCC4)c3s2)CC1 [pictilisib] 0.107
COc1cc(Nc2ncc3c(n2)-c2ccc(Cl)cc2C(c2c(F)cccc2OC)=NC3)ccc1C(=O)O [alisertib] -0.021
Cn1cc(-c2ccc3c(c2)CCN3C(=O)Cc2cccc(C(F)(F)F)c2)c2c(N)ncnc21 -0.041
O=C(CCCCCCC(=O)Nc1ccccc1)NO [vorinostat] -0.128
C[C@@H](Oc1cc(-c2cnn(C3CCNCC3)c2)cnc1N)c1c(Cl)ccc(F)c1Cl [crizotinib] -0.113
Cc1ccc(-n2nc(C(C)(C)C)cc2NC(=O)Nc2ccc(OCCN3CCOCC3)c3ccccc23)cc1 [doramapimod] 0.036
Cc1cn(-c2cc(NC(=O)c3ccc(C)c(Nc4nccc(-c5cccnc5)n4)c3)cc(C(F)(F)F)c2)cn1 [nilotinib] 0.03
O=C(O)c1ccc2c(c1)nc(Nc1cccc(Cl)c1)c1ccncc12 [silmitasertib] 0.02
C=CC(=O)N1CCC[C@@H](n2nc(-c3ccc(Oc4ccccc4)cc3)c3c(N)ncnc32)C1 [ibrutinib] -0.024
O=C(Nc1nc2ccccc2n1CCN1CCOCC1)c1cccc([N+](=O)[O-])c1 [IRAK-1-4 Inhibitor I] -0.031
Cc1nc(Nc2n[nH]c3c2CN(C(=O)N[C@H](CN(C)C)c2ccccc2)C3(C)C)c2sccc2n1 -0.018
CO[C@H]1C[C@@H]2CC[C@@H](C)[C@@](O)(O2)C(=O)C(=O)N2CCCC[C@H]2C(=O)O[C@H]([C@H](C)C[C@@H]2CC[C@H](n3cnnn3)[C@H](OC)C2)CC(=O)[C@H](C)/C=C(\C)[C@@H](O)[C@@H](OC)C(=O)[C@H](C)C[C@H](C)/C=C/C=C/C=C/1C [zotarolimus] -0.008
FC(F)(F)c1ccc(/C=C/c2nc(COc3ccc(CCCCn4ccnn4)cc3)co2)cc1 [mubritinib] 0.019
